# According to patent US5807986A, “Methods of making and screening betide libraries” (The Salk Institute For Biological Studies, priority 1995, dated 1998):
# By UniProt entry, the sequences of proteins in these tests, tags left out. Where a name states a change or a piece, a line headed by the entry shows the natural chain unless it says otherwise.
# UniProt P30873: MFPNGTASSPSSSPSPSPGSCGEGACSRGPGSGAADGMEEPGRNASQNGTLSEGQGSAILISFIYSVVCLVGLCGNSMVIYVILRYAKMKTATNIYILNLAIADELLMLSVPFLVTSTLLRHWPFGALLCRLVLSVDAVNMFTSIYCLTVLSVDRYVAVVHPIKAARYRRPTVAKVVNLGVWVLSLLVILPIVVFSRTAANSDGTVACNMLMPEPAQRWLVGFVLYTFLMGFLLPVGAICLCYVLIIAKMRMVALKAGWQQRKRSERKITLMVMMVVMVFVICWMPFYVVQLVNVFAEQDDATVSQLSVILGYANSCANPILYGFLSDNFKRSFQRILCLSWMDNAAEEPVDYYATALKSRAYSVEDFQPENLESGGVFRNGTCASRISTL
# UniProt P30875: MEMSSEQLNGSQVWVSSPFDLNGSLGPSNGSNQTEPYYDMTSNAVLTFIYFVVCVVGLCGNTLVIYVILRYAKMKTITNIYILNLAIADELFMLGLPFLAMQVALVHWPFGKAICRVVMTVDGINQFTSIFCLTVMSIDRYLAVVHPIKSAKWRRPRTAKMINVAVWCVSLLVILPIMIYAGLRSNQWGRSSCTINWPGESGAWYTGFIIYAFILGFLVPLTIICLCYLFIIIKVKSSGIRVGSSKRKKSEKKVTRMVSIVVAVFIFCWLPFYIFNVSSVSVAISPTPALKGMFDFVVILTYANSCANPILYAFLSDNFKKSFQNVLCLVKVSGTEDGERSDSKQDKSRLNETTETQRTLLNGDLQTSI
# UniProt P30935: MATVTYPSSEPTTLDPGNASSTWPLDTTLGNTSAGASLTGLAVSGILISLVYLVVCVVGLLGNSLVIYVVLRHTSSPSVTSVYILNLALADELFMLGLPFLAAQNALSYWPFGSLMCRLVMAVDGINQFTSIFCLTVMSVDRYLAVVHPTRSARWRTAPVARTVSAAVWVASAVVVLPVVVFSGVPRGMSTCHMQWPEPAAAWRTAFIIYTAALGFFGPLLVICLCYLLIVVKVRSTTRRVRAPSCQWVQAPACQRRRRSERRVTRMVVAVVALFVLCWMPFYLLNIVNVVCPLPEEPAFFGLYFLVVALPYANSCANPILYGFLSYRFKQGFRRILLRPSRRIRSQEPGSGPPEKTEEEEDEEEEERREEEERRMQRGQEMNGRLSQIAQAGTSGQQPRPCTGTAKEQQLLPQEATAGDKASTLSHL
# What was measured:
# mSSTR1 = biological target: T1, mSSTR1 (Mus musculus, UniProt P30873); test: inhibition of radioligand binding to cloned SRIF receptor mSSTR1; settings: IC50 mSSTR1, cloned mouse receptor expressed on COS and CHO cells
# T1 construct: expressed in transfected cells; host or cells: COS and CHO cells
# Description: (§1) In vitro Bioassay: The effects of the various somatostatin analogs are tested in vitro for their ability to bind to isolated cloned receptors expressed on COS and CHO cells.
# (§2) Five such receptor subtypes termed SSTR1 through SSTR5, have been cloned and are reported and described in Raynor et al., Molecular Pharmacology, 43, 838-844 (1993) and in Raynor et al., Molecular Pharmacology, 44, 385-392 (1993).
# mSSTR2 = biological target: T2, mSSTR2 (Mus musculus, UniProt P30875); test: inhibition of radioligand binding to cloned SRIF receptor mSSTR2
# T2 construct: expressed in transfected cells; host or cells: COS and CHO cells
# Description: as §1, §2
# mSSTR3 = biological target: T3, mSSTR3 (Mus musculus, UniProt P30935); test: inhibition of radioligand binding to cloned SRIF receptor mSSTR3; settings: IC50 mSSTR3, cloned mouse receptor expressed on COS and CHO cells
# T3 construct: expressed in transfected cells; host or cells: COS and CHO cells
# Description: as §1, §2
smiles,measurement,setting,value
"C[C@@H](O)[C@@H]1NC(=O)[C@H](CCCCN)NC(=O)[C@@H](Cc2c[nH]c3ccccc23)NC(=O)[C@H](Cc2ccccc2)NC(=O)[C@H](Cc2ccccc2)NC(=O)[C@@H](N)CSSC[C@@H](C(=O)O)NC(=O)[C@H](Cc2ccccc2)NC1=O [ODT8, (cyclo 1-8)H-Cys-Phe-Phe-D-Trp-Lys-Thr-Phe-Cys-OH, reference compound]",IC50,mSSTR1,1 nM
same,IC50,mSSTR2,35 nM
same,IC50,mSSTR3,4 nM
